The target in one experiment is T1, ETV4 (UniProt P43268).
T1 sequence: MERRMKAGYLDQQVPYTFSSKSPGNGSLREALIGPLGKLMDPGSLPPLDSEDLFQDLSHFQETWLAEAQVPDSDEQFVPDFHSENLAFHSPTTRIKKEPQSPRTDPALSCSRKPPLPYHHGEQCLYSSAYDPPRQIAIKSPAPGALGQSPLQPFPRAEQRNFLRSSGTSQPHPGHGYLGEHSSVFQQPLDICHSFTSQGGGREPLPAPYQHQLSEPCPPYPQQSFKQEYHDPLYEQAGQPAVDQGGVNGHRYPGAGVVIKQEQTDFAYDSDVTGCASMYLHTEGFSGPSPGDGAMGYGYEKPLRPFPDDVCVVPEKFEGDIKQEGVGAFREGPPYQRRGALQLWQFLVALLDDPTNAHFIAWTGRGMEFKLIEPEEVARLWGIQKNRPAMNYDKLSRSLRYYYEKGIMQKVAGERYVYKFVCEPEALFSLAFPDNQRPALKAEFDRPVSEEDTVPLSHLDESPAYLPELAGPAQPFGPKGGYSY
Put plainly: DAPPL (digital affinity profiling via proximity ligation, sequencing). The conditions noted are these: 10 mM Tris-HCl pH 7.5, 50 mM NaCl, 1 mM DTT, 4% glycerol, room temperature, 30 min; GST-TFs on glutathione beads, 16-mer random dsDNA library, 0.1% …; high values mean tight binding; double strand, one strand shown; scale: fold enrichment (6-mer frequency, TF over GST control).

A further experiment addresses T2, ERG (UniProt P11308).
T2 sequence: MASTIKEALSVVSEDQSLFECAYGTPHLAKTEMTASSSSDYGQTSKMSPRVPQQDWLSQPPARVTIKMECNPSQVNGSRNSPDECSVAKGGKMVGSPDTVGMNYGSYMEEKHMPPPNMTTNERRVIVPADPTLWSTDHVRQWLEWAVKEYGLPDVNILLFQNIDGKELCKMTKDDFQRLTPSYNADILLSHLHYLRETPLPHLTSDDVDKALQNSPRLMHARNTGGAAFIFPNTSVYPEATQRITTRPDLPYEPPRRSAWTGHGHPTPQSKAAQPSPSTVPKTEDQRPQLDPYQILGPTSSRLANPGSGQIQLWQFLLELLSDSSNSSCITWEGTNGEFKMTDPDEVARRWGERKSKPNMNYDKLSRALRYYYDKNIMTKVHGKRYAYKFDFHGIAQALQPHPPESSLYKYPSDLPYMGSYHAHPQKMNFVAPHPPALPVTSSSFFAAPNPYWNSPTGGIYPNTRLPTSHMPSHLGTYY
Described as above. As to conditions: 10 mM Tris-HCl pH 7.5, 50 mM NaCl, 1 mM DTT, 4% glycerol, room temperature, 30 min; GST-TFs on glutathione beads, 16-mer random dsDNA library, 0.1% …; high values mean tight binding; double strand, one strand shown; scale: fold enrichment (6-mer frequency, TF over GST control).

The entries are a selection whose mix differs from that of the whole data set. For some of these results: At the low end of the ranking the order means little. This is one part of the list. For some of these results: The exact form of the protein is not confirmed.

Data on 72 sequences can be found in paper PMC7862700.

The sequence GCCTCA had a binding signal with ETV4 of 1.3. Same read-out and setting: for TCTACT the value was 1.5; for ACCGAC, 1.34.

With CAATCA, in the experiment with ETV4, the binding signal came out at 1.03. On the same count and under the same terms, for CGTTCA the value was 1.2; for TTACAC, 1.23; for GAACCT, 1.14.

AAGTAA yielded a binding signal with ETV4 of 1.3. Still for that read-out and setting: for CTGGAT the value was 1.4; for ATCTGT, 1.15; for AGCAGC, 1.09. On the same count and under the same terms, with CCATTC the figure was 1.12. On the same count and under the same terms, for ATCTCG the value was 1.44; for ACACGA, 1.1; for ACTCGC, 1.27. GGTTTC returned a binding signal in the experiment with ETV4 of 1.61. ACCTAA gave a binding signal in the experiment with ETV4 of 1.18.

Turning to TAACCT, the binding signal with ETV4 was determined as 1.37. Still for that read-out and setting: for TCTGGG the value was 1.21. The same measure, in the same setting: for AAGTAC the value was 1.69; for CGCCTT, 1.59. The same measure, in the same setting: for GCTGAA the value was 1.15. In the experiment with ETV4, TCTCTG displayed a binding signal of 1.61.

Consider CGCTCC, for which, in the experiment with ETV4, the binding signal was determined as 1.36. On the same count and under the same terms, with TCACTT the figure was 1.68. Still for that read-out and setting: with AACTTC the figure was 2.69; with TCGCGC, 1.03. AAAACA gave a binding signal with ETV4 of 1.32.

TATGTA: the binding signal in the experiment with ETV4 amounted to 1.26. The same measure, in the same setting: for TACCCG the value was 1.38; for AATGCA, 1.25; for CTAATG, 1.22.

For GATGGC, the binding signal in the experiment with ETV4 came out at 1.49.

Turning to GGCTAG, the binding signal with ERG came out at 1.1; with ETV4, 1.01.

CCGATA: the binding signal in the experiment with ERG was 1.14; with ETV4 it was 1.15. In the experiment with ETV4, CGAAAC came in with a binding signal of 1.15. Turning to CGCTTT, the binding signal with ERG stood at 1.15; with ETV4, 1.18. The like results for CCCGAC were, in that order, 1.43 and 1.3. On to ACGCCC, for which the figures for the binding signal with ERG and in the experiment with ETV4 were 1.11 and 1.18, respectively. Sequence AACCTT returned a binding signal with ETV4 of 1.3. As for TTCACC, the binding signal with ERG and with ETV4 was 1.38 each time. For the sequence TATTCG, the results for the binding signal in the experiment with ERG and with ETV4 were 1.14 and 1.11, respectively. In the same order, the values of CGACAC are 1.23 and 1.16. ATTAGC: the binding signal was found to be 1.15 with ERG and 1.18 with ETV4. TGAACC: in the experiment with ETV4, the binding signal was 1.14. On to GAACCC, for which the binding signal in the experiment with ERG was 1.18; with ETV4 it was 1.07. In the same order, the values of TGCTGT are 0.991 and 1.03. As to TATGGA, the binding signal with ERG and with ETV4 was 1.15 each time.

For the sequence TGGTAG, the binding signal with ERG is 1; with ETV4, 1.11. The like results for GAACAC were, in that order, 1.17 and 1.05. For TCTGCA, the binding signal with ERG is 1.25; with ETV4 it was 1.41. In the same order, the values of ATACCT are 1.05 and 1.13.

With TTGTCT, the binding signal in the experiment with ERG stood at 1.15; with ETV4 it was 1.21. The like results for CGTCCG were, in that order, 1.27 and 1.35. As to CCTCTA, the binding signal with ERG turned out to be 1.32; with ETV4 it was 1.41.

CTCTCA: the binding signal with ERG is 1.36; in the experiment with ETV4 it was 1.5. In the case of TGTAGC, the binding signal with ERG was 1.11; with ETV4, 1.23. For TGTTCT, the values for the binding signal with ERG and with ETV4 were 1.38 and 1.29, respectively.

Take CCCTTT: the binding signal came to 1.45 with ERG and 1.42 in the experiment with ETV4. The like results for CATCTA were, in that order, 1.11 and 1.16. TAATTG displayed a binding signal in the experiment with ETV4 of 1.39.

In the case of AGTTCC, the figures for the binding signal with ERG and in the experiment with ETV4 were 2.2 and 2.03, respectively. Consider TATTAA, for which the binding signal in the experiment with ERG and with ETV4 was 1.12 throughout.

For the sequence GTCTCA, the binding signal with ERG and in the experiment with ETV4 was 1.36 throughout. Turning to TCTTCA, the binding signal is 1.16 with ERG and 1.27 in the experiment with ETV4. In the same order, the values of CCACGC are 1.16 and 1.2. For ACCGAA, the results for the binding signal with ERG and with ETV4 were 0.999 and 1.04, respectively. In the experiment with ETV4, CTGTTA showed a binding signal of 1.35.

For AAATTA, the binding signal in the experiment with ERG is 1.28; with ETV4, 1.22. In the same order, the values of AACAAA are 1.18 and 1.14. In the same order, the values of AACGCT are 1.19 and 1.3. The like results for CGAGTT were, in that order, 0.98 and 1.07.
